# Experimental data as given in patent publication US7141541B1, “Use of peptides” (University Court of the University of Dundee, priority 1999, dated 2006).
# Some results were stated once for a whole list of compounds, not compound by compound.
# Tested on: MRC5 cells
# Assay: cell survival by MTT assay
# Format: cell-based
# Settings: 72 h serum-starved MRC5 cells
# Experimental: FIGS. 13a–d are graphs showing cell survival (% of control, untreated cells) as measured by MTT assay. a) Lane 1: 10 μM BP2 peptide added to serum-fed cells or Lane 2, 3, 4: 10 μM BP2 peptide added to 24 h, 48 h or 72 h serum-starved cells respectively. Lane 5: 10 μM BP2 YLL-AAA added to 72 h serum starved cells. Lane 6: 72 h serum starved cells incubated in 10% serum for 1 h prior to addition to 10 μM BP2 peptide. Lane 7: 72 h serum starved cells incubated with 100 μg/ml cycloheximide followed by a 1 h incubation with 10% serum prior to the addition of 10 μM BP2 peptide. In all cases the cells were then further incubated for 1 h in 0.1 mg/ml MTT. Cells were lysed in DMSO and absorbance was measured at […]. b–d) Varying concentrations of peptides were added to 72 h serum starved MRC5 cells. After 30 min incubation the cells were then further incubated for 1 h in 0.1 mg/ml MTT. Cells were lysed in DMSO and absorbance was measured at 570 nm.
substance,measurement,setting,value
"Hu4G: biotinylated, penetratin-linked peptide of the eIF4E binding motif of human eIF4G (KKRYDREFLLGFRQIKIWFQNRRMKWKK)",time to rapid cell death,10 μM peptide,≤ 1 h
same,time to rapid cell death,20 μM peptide,≤ 0.5 h
